{"source": "patent US8518923B2", "about": "“Treatment or prevention of hypertensive disorders of pregnancy or fetal growth retardation” (Pantarhei Bioscience B.V., priority 2007, dated 2013)", "origin": "cited, not measured here", "key": {"Myometrial arteries": {"tested_on": "Myometrial arteries", "settings": "previous study; cited from earlier work"}, "subcutaneous arteries": {"tested_on": "subcutaneous arteries", "settings": "previous study; cited from earlier work"}}, "note": "For at least one compound, name, drawing or mass did not settle the structure.", "data": [{"smiles": "C[C@]12CC[C@@H]3c4ccc(O)cc4CC[C@H]3[C@@H]1CC[C@@H]2O", "note": "[estradiol]", "values": [{"measurement": "relaxation in myometrial arteries", "setting": "Myometrial arteries", "value": "not capable of inducing relaxation"}, {"measurement": "relaxation in subcutaneous arteries", "setting": "subcutaneous arteries", "value": "not capable of inducing relaxation"}]}]}
